Test results from US20030007956A1.
No constants are given. Whether binding was seen depends on the method and setting. In cells and extracts the contact can be indirect. Some entries that bind do so weakly or less than the wild type. Sequences can lack the tags named with a protein. One block for each molecule: values may come before it.

Sequences of proteins named here, by UniProt entry; tags and fusion partners are left off. A change or cut given only in a name is not applied to a line headed by its entry. A line that says so, or that is headed by a name, gives the form on record, which may keep a tag or linker.
HA-βTrCP (Q9Y297, form named): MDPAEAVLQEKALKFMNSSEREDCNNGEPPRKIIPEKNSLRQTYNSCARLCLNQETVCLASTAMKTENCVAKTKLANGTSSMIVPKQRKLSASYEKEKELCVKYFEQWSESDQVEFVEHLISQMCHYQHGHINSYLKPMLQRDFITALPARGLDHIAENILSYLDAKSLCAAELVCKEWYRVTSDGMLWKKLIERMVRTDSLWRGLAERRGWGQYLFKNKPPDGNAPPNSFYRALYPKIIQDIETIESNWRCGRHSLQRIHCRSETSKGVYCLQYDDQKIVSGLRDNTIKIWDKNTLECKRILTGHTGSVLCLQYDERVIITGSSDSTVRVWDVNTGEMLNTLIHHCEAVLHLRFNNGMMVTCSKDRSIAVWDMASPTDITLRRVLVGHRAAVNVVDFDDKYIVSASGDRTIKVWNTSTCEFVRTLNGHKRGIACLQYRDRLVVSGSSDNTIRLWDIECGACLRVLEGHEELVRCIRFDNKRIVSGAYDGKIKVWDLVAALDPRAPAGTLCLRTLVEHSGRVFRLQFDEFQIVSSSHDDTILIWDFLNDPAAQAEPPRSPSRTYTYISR

What was measured:
Myc-RasSF1A (human) [1] = target: T1, Myc-RasSF1A (human) (UniProt Q9NS23); experiment: co-immunoprecipitation with anti-myc, SDS gels of 35S-labelled proteins
T1 sequence (looked up): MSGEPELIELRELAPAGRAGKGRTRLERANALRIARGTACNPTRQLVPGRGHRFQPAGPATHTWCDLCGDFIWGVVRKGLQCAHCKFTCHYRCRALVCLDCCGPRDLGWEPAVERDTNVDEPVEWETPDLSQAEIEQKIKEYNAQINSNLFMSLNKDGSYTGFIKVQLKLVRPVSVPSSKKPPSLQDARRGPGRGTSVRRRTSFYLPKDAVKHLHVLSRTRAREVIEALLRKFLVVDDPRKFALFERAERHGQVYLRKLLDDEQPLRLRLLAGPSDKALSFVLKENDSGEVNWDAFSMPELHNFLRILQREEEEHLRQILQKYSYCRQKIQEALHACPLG

Myc-RasSF1A (human) [2] = target: T1, Myc-RasSF1A (human); experiment: co-immunoprecipitation with anti-myc 9E10 from 35S-labelled HeLa cells, SDS PAGE and autoradiography
Myc-RasSF1A (human) [3] = target: T1, Myc-RasSF1A (human); experiment: co-immunoprecipitation with anti-myc 9E10 from 35S-labelled HeLa cells
HA-βTrCP (human) [4] = target: HA-βTrCP (human) (UniProt Q9Y297); experiment: co-immunoprecipitation from 293 cells, Western blot
HA-βTrCP (human) [5] = target: HA-βTrCP (human) (UniProt Q9Y297); experiment: co-immunoprecipitation with anti-HA 3F10 from co-transfected 293 cells, anti-myc Western blot

binding (Myc-RasSF1A (human) [1]): binds
binding (Myc-RasSF1A (human) [2]): binds
binding (Myc-RasSF1A (human) [3]): binds
Molecule: HA-βTrCP (from UniProt Q9Y297 1-569)

binding (HA-βTrCP (human) [4]): binds
binding (HA-βTrCP (human) [5]): binds
B1: Myc-RasSF1A (protein, human, UniProt Q9NS23-2 1-340, looked up, not shown: small tags and cut ends)
chain: T1 sequence (looked up)

binding (HA-βTrCP (human) [4]): binds
binding (HA-βTrCP (human) [5]): binds
B2: Myc-RasSF1C (protein, human, UniProt Q9NS23-4 1-270, looked up, not shown: small tags and cut ends)
chain: MGEAEAPSFEMTWSSTTSSGYCSQEDSDSELEQYFTARTSLARRPRRDQDEPVEWETPDLSQAEIEQKIKEYNAQINSNLFMSLNKDGSYTGFIKVQLKLVRPVSVPSSKKPPSLQDARRGPGRGTSVRRRTSFYLPKDAVKHLHVLSRTRAREVIEALLRKFLVVDDPRKFALFERAERHGQVYLRKLLDDEQPLRLRLLAGPSDKALSFVLKENDSGEVNWDAFSMPELHNFLRILQREEEEHLRQILQKYSYCRQKIQEALHACPLG
